According to PubChem BioAssay AID256 (DTP/NCI, 2004):
The list is a part of this screen's results and no random one: it gathers tests that were run many times, whatever their T/C, doses with no T/C, and many T/C values between a quarter and a half above the control. Further doses and runs are listed elsewhere. T/C is the treated group as % of the vehicle group. Some doses have a count of surviving animals in place of a T/C: the source holds a T/C of zero for them, seemingly a mark for toxic or unscored doses. Some doses without a T/C left all or most animals alive at the check, yet need not have been tolerated: survival well below the control is almost never listed, so the zero probably covers shortened survival too. Counts of survivors are from the toxicity check (mostly the fifth day) where no day follows; animals may have died later. Schedule codes are those of the source, taken here to give the interval after Q, in days (D) or hours (H), and the number of doses after X. Where survival is the endpoint, this PubChem deposit counts one and a half times the control or more as active, and values a quarter to a half above the control carry no call in these data; other NCI protocols may use other cut-offs.

Tested on: CD2F1 mice, L1210 leukemia ip, survival T/C
Experiment: NCI In Vivo Anticancer Drug Screen. Data for tumor model L1210 Leukemia (intraperitoneal) in CD2F1 (CDF1) mice
Details: higher T/C = longer survival
Method in brief: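 Tumor-bearing mice (transplanted tumor) were split into treated and vehicle control groups, and the measured endpoint of each treated group was divided by that of its vehicle controls.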

[1] = T/C endpoint: mean survival time, dose: 200.0 mg/kg/injection, schedule: Q01DX009 (ip), vehicle: saline with Tween-80
[2] = T/C endpoint: mean survival time, dose: 400.0 mg/kg/injection, schedule: Q04DX003 (ip), vehicle: saline with Tween-80
[3] = T/C endpoint: mean survival time, dose: 100.0 mg/kg/injection, schedule: Q04DX003 (ip), vehicle: saline with Tween-80
[4] = T/C endpoint: mean survival time, dose: 400.0 mg/kg/injection, schedule: Q01DX009 (ip), vehicle: saline with Tween-80
[5] = T/C endpoint: mean survival time, dose: 200.0 mg/kg/injection, schedule: Q04DX003 (ip), vehicle: saline with Tween-80
[6] = T/C endpoint: mean survival time, dose: 400.0 mg/kg/injection, schedule: Q04DX003 (ip), vehicle: saline

O=C(SCN1CCCCC1)c1ccccc1
survivor count [1]: 4 of 6 | survivor count [2]: 0 of 6

N#Cc1c(F)c(F)c(Oc2c(F)c(F)c(F)c(F)c2F)c(F)c1F
survivor count [2]: 4 of 6

CCCCCCCCCCCCCCCCOc1ccc(-c2cc(Cl)c3cc(S(=O)(=O)F)ccc3n2)cc1S(=O)(=O)F
survivor count [3]: 6 of 6 | survivor count [4]: 2 of 6

CS(=O)(=O)OCCOS(C)(=O)=O
T/C [4]: 136 % of control

C1CN(CCSSCCN2CCOCC2)CCO1
survivor count [2]: 3 of 6

Cc1ccc(NC(=O)OCCOc2ccccc2Cl)cc1[N+](=O)[O-]
survivor count (T/C endpoint: mean survival time, dose: 100.0 mg/kg/injection, schedule: Q01DX009 (ip), vehicle: saline with Tween-80): 3 of 3 | survivor count [1]: 3 of 3

C=C(C)CNC1=C(C)C(=O)C2=C(C1=O)[C@@H](COC(N)=O)[C@]1(O)[C@H]3[C@@H](CN21)N3C (stereo partly specified)
T/C (T/C endpoint: mean survival time, dose: 50.0 mg/kg/injection, schedule: Q01DX001 (ip), vehicle: distilled water + Tween-80): 138 % of control

CCOC(NCc1ccc(OC)c(OC)c1)OCC
survivor count (T/C endpoint: mean survival time, dose: 400.0 mg/kg/injection, schedule: Q01DX001 (ip), vehicle: saline): 0 of 6

NC(=S)N/N=C/c1ccccn1
T/C (T/C endpoint: mean survival time, dose: 6.7 mg/kg/injection, schedule: Q01DX009 (ip), vehicle: saline with Tween-80): 132 % of control | T/C (T/C endpoint: mean survival time, dose: 10.0 mg/kg/injection, schedule: Q01DX009 (ip), vehicle: saline with Tween-80): 148 % of control | survivor count (T/C endpoint: mean survival time, dose: 12.5 mg/kg/injection, schedule: Q04DX002 (ip), vehicle: Klucel (hydroxypropylcellulose) (HPC)): 3 of 3 | survivor count (T/C endpoint: mean survival time, dose: 15.0 mg/kg/injection, schedule: Q01DX009 (ip), vehicle: saline with Tween-80): 1 of 6 | survivor count (T/C endpoint: mean survival time, dose: 25.0 mg/kg/injection, schedule: Q04DX002 (ip), vehicle: Klucel (hydroxypropylcellulose) (HPC)): 1 of 3 | survivor count (T/C endpoint: mean survival time, dose: 50.0 mg/kg/injection, schedule: Q04DX002 (ip), vehicle: Klucel (hydroxypropylcellulose) (HPC)): 0 of 3 | survivor count [3]: 0 of 6 | survivor count [5]: 0 of 6 | survivor count [2]: 0 of 6

CC(C)S(=O)(=O)/C=C(\I)c1ccccc1
survivor count [6]: 2 of 6

COc1ccc([NH-])cc1.COc1ccc([NH-])cc1.[Br][Pt+2][Br]
survivor count (T/C endpoint: mean survival time, dose: 100.0 mg/kg/injection, schedule: Q04DX003 (ip), vehicle: distilled water + Tween-80): 2 of 6 | survivor count (T/C endpoint: mean survival time, dose: 200.0 mg/kg/injection, schedule: Q04DX003 (ip), vehicle: distilled water + Tween-80): 0 of 6

CCCCCC(O)C1C(=O)OC(C)C(O)/C=C/C=C/C=C/C=C\C=C(\C)C(O)CC(O)CC(O)CC(O)CC(O)CC(O)CC1O (stereo unspecified)
survivor count (T/C endpoint: median survival time, dose: 50.0 mg/kg/injection, schedule: Q01DX009 (ip), vehicle: distilled water + alcohol): 3 of 6

CCOc1cc[n+](C)c2ccc(C)cc12
survivor count (T/C endpoint: mean survival time, dose: 100.0 mg/kg/injection, schedule: Q04DX002 (ip), vehicle: saline with Tween-80): 0 of 3 | survivor count (T/C endpoint: mean survival time, dose: 200.0 mg/kg/injection, schedule: Q04DX002 (ip), vehicle: saline with Tween-80): 0 of 3 | survivor count (T/C endpoint: mean survival time, dose: 400.0 mg/kg/injection, schedule: Q04DX002 (ip), vehicle: saline with Tween-80): 0 of 3

CCC1(O)C(=O)OCc2c1cc1n(c2=O)Cc2cc3ccc(C)cc3nc2-1 (stereo unspecified)
T/C (T/C endpoint: median survival time, dose: 20.0 mg/kg/injection, schedule: Q04DX002 (ip), vehicle: saline with Tween-80): 126 % of control | T/C (T/C endpoint: median survival time, dose: 40.0 mg/kg/injection, schedule: Q04DX002 (ip), vehicle: saline with Tween-80): 136 % of control | T/C (T/C endpoint: median survival time, dose: 80.0 mg/kg/injection, schedule: Q04DX002 (ip), vehicle: saline with Tween-80): 133 % of control

CCCc1cccc[n+]1CC(=O)c1ccccc1
survivor count (T/C endpoint: mean survival time, dose: 100.0 mg/kg/injection, schedule: Q04DX003 (ip), vehicle: saline): 1 of 6 | survivor count (T/C endpoint: mean survival time, dose: 200.0 mg/kg/injection, schedule: Q04DX003 (ip), vehicle: saline): 0 of 6 | survivor count [6]: 0 of 6

Nc1ccc(N)c(N)n1
survivor count [3]: 0 of 6 | survivor count [5]: 0 of 6 | survivor count [2]: 0 of 6
